Experimental data taken from US20230348369A1 (Cytokinetics, Inc., priority 2020, published 2023).

Protein sequences, listed by entry. Tags and fused reporters are not part of them.
UniProt P43490, whole entry: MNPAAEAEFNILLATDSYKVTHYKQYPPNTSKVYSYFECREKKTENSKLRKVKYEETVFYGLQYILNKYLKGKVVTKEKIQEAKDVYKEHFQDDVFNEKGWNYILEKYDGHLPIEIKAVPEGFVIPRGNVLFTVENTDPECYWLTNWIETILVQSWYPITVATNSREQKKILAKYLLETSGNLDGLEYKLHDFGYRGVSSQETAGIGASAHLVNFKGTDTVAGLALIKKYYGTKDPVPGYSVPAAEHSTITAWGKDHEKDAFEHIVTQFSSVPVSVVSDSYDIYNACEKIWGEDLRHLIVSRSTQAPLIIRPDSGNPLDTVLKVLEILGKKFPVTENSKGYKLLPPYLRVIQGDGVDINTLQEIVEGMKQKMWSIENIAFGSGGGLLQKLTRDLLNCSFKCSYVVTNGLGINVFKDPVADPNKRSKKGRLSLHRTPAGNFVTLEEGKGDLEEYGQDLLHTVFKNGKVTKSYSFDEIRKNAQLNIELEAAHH

Biological target: human NAMPT (Homo sapiens, UniProt P43490)
Assay: Human recombinant enzyme assay (NMN fluorescence biochemical assay, activation of NAMPT)
Details: for AC1.4 Human: Table A, NMN formation, 60 min; for EC50: read-out: EC50 Human, Table A, NMN formation, 60 min
Protocol: Compounds described herein were assayed for their ability to stimulate the synthesis of nicotinamide mononucleotide (NMN) by the enzyme NAMPT. The human recombinant enzyme assay measures the activation of the enzyme activity by compounds using recombinant enzyme and substrates in a buffered cell-free system. The assay conditions closely mimic cellular environments. Dose responses were measured using an assay to detect the formation of nicotinamide mono-nucleotide. All experiments were performed in the 384-well format. Generally, 0.5 μL of DMSO containing varying concentrations of the test compound was mixed with 10 μL of the enzyme reagent solution. Enzyme reactions were initiated with the addition of 10 μL of a solution containing the substrates. The final assay conditions were as follows: 6 nM human NAMPT, 2.5 mM ATP, 20 μM PRPP and 150 μM nicotinamide in 50 mM HEPES, pH 7.2, 1 mM DTT, 1 mM CHAPS 50 mM NaCl, 100 mM MgCl2. Following an incubation of 60 min at ambient temperature, 10 μL of 20% acetophenone in DMSO was added, followed by 10 μL of 2 M KOH and 40 μL of formic acid. The plates were read for fluorescence (Excitation/Emission=355 nm/460 nm) using an EnVision plate reader after 40 mins of incubation at ambient temperature. The potency measurements for compounds, are quantified and represented as AC1.4 (the concentration of compounds that generates 40% higher activity over basal) and EC50 (concentration of the compound that gives half-maximal activation).

Row | SMILES | AC1.4 Human [µM] | EC50 [nM]
1 | Cc1ccccc1C(=O)N1CCC(CCCCNC(=O)NCc2ccc(Cl)cc2)CC1 | 0.1 | 200
2 | Cc1cccc(C(=O)N2CCC(CCCCNC(=O)NCc3ccc(Cl)cc3)CC2)n1 | 1.1 | 2900
3 | COc1ccc(CNC(=O)NC2CC3(C2)CC(c2nnc(-c4ccc(C)nc4)o2)C3)cc1 (stereo not shown) | 6.2 | 28500
4 | Cc1cccc(C(=O)N2CCC(CCCCNC(=O)NCc3ccc(Cl)cc3)CC2)c1 | 0.8 | 2000
5 | COc1ccc(CNC(=O)NC2CC3(CCN(C(=O)OC(C)(C)C)C3)C2)cc1 (stereo not shown) | 19.3 | 30400

Structures were worked out from names or drawings and are uncertain.
